Laboratory results published in patent US6100032.
The comparison behind a weaker result is the experiment's own reference, which may not be listed here. For some assays here: Tags and fusion partners may be left off the protein sequences shown.

Protein sequences, listed by entry. Tags and fused reporters are not part of them. Residues count along the entry.
UniProt P84022, 1-200: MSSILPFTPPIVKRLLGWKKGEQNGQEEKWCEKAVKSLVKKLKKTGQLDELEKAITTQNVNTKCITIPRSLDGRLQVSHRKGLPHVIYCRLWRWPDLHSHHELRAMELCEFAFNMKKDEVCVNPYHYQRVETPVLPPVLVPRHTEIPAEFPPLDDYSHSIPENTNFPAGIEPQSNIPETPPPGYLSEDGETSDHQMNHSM

Columns and labels:
[1] = target: GST-Smad3/MH1 (Homo sapiens) (UniProt P84022); assay: EMSA; settings: specific but inefficient, typically less than 5% of input probe shifted; purified recombinant protein; protein details: GST N-terminal (pGEX2TK, Pharmacia); label: 32P
[2] = target: T1, GST-Smad4/MH1 (Homo sapiens) (UniProt Q13485); assay: EMSA; settings: specific but inefficient, typically less than 5% of input probe shifted; purified recombinant protein; protein details: GST N-terminal (pGEX2TK, Pharmacia); label: 32P
T1 sequence (looked up): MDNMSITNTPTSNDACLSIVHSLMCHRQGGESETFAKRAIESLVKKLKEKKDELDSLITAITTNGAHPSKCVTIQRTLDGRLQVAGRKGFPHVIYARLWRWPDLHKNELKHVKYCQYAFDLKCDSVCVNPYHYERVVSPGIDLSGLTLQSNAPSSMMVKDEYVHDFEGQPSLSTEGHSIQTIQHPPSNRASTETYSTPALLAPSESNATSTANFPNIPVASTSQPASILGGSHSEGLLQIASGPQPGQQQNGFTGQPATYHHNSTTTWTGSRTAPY

TTTGTGCTTGGCTGCCGTCGCGATTCGACAACTTTGG (double strand) [Vg probe]
binding result [1]: binds more weakly
binding result [2]: binds more weakly
